Tested on: HF diet-induced obese mice
Assay: Oral glucose tolerance test and insulin tolerance in HF diet-induced obese mice
Assay type: in vivo
Conditions: oral 50 mg/kg, 10 days
Procedure: The original Adipor1^+/−/Adipor2^+/− mice (C57BL/6 and 129/Sv mixed background)^a were backcrossed with C57B1/6 mice more than seven times. All experiments in this study were conducted on male littermates.
Mice were 6-10 week of age at the time of the experiment. They were housed in cages and maintained on a 12 hr light-dark cycle.
Plasma glucose levels were determined by using a glucose B-test (Wako Pure Chemical Industries). Plasma insulin was measured with an insulin immunoassay (Shibayagi). Plasma NEFAs (Wako Pure Chemical Industries) were assayed by enzymatic methods.
The oral glucose tolerance test (OGTT) and insulin tolerance test (ITT) were conducted as previously described^a,b with slight modifications. The areas of the glucose and insulin curves were calculated by multiplying the cumulative mean height of the glucose values (1 mg/ml=1 cm) and insulin values (1 ng/ml=1 cm), respectively, by time (60 min=1 cm)^c,a. The insulin resistance index was calculated from the product of the areas of glucose and insulin×10^−2 in the glucose tolerance test. The results are expressed as the percentage of the value respect to control littermates.

## O=C(COc1ccc(C(=O)c2ccccc2)cc1)NC1CCN(Cc2ccccc2)CC1 [Compound 73, 2-(4-benzoyl-phenoxy)-N-(1-benzylpiperidin-4-yl)acetamide]
  body weight: did not significantly affect body weight
  food intake: did not significantly affect

Source: patent publication US20170298051A1, “ACTIVATOR OF ADIPONECTIN RECEPTOR” (THE UNIVERSITY OF TOKYO, priority 2013, published 2017)
